Where two headings read alike, the source gives them in different places. These are yes or no findings as the source states them, for the method shown.
How the values were obtained:
[1] = target: DENV2 VLP (Dengue virus 2); assay: ELISA
[2] = target: DENV4 E protein (Dengue virus serotype 4); assay: ELISA
[3] = target: DENV1 E protein (Dengue virus serotype 1); assay: ELISA
[4] = target: DENV3 VLP (Dengue virus 3); assay: ELISA
[5] = target: DENV3 E protein (Dengue virus serotype 3); assay: ELISA
[6] = target: DENV1 VLP (Dengue virus 1); assay: ELISA
[7] = target: DENV4 VLP (Dengue virus 4); assay: ELISA
[8] = target: DENV1 E protein (Dengue virus serotype 1); assay: ELISA; remark: listed apart in the source
[9] = target: DENV1 VLP (Dengue virus 1); assay: condition: dilution factor 1 (no concentration given); ELISA

B1: ZKA64 (antibody, V domains shown)
VH: QVQLVQSGAEVKKPGASVKVSCKASGYTFTGYHIDWVRQARGQGLEWMGRINPNSGGTNYAQKFQGRVTMTRDTSISTAYMQLSRLRSDDSAVYYCARMSSSIWGFDHWGQGTLVTVSS
VL: EIVMTQSPATLSVSPGERATLSCRASQSVLINLAWYQQKPGQAPRLLIYGASSRATGIPARFSGSGSGTEFTLTISSLQSEDFAVYYCQQYNDWPPITFGQGTRLEIK
B1 was tested, and the binding [1] was “no binding”, the binding [2] was “no binding” and the binding [3] was “no binding”. The binding [4] was “no binding”, the binding [5] was “no binding” and the binding [6] was “no binding”. The binding [7] was “no binding” and the binding [8] was “no binding (tested: 10000 ng/ml)”.

B2: ZKA230 (antibody, V domains shown)
VH: QVQLQESGPGLVKPSETLSLTCAVSGGSISSDYWSWIRQPPGKGLEWIGYIYYSGSTNYNPSLKSRVTISVDTSKNHFSLKLNSVTAADTAVYYCARRRKYDSLWGSFAFDIWGQGTMVTVSS
VL: QSVLTQPPSASGTPGQRVTISCSGSSSNIGGNYVYWYQQLPGTAPKLLICINDHRPSGVPDRFSGSKSGTSASLAISGLQSEDEADYYCATWDDSLGGLVFGGGTKLTVL
With B2 the binding [9] was “no binding”, the binding [2] was “no binding” and the binding [3] was “no binding”. For the same binder, the binding [5] was “no binding”.

B3: ZKA185 (antibody, V domains shown)
VH: EVQLVQSGAEVKKPGESLRISCKGSGYSFTSYWITWVRQMPGKGLEWMAKFDPSDSQTNYSPSFQGHVTISVDKSISTAYLQWSSLKASDTAMYYCARRYCSSSSCYVDNWGQGTLVTIFS
VL: SYELTQPPSVSVSPGQTARITCSGDALPNKFAYWYRQKSGQAPVLVIYEDNKRPSGIPERFSGSSSGTMATLTISGAQVEDEADYHCYSTDSSSNPLGVFGGGTKLTVL
For B3, the binding [9] was “no binding”, the binding [2] was “no binding” and the binding [3] was “no binding”. The binding [5] was “no binding”.
